PubChem BioAssay AID1259425 – University of Nebraska Medical Center, 2018
Purpose: 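Find knockdowns that reproduce the gene expression pattern seen when KSR1 is lost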 (primary screen). Cells: HCT116 human colon cancer cells. Reagent: siRNA pool against human genes, 50 nM siRNA. Measured: 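After 50 nM siRNA pool, branched-DNA assay measures six marker transcripts per well, minus blank, normalised to the geometric mean of two housekeeping transcripts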. Reading the numbers: BNIP3L mRNA: higher = more BNIP3L transcript after knockdown; NDRG1 mRNA: higher = more NDRG1 transcript after knockdown; BNIP3 mRNA: higher = more BNIP3 transcript after knockdown; ALDOC mRNA: higher = more ALDOC transcript after knockdown; ACSL5 mRNA: higher = more ACSL5 transcript after knockdown.
Shown is an unselected part of about 14,000 reagents. Not given: the time to read-out.

Target gene	BNIP3L mRNA, set 1	NDRG1 mRNA, set 1	BNIP3 mRNA, set 1	ALDOC mRNA, set 1	ACSL5 mRNA, set 1
HLA-C (major histocompatibility complex, class I, C)	0.0695	0.0656	0.186	0.0147	0.0634
ZNF385D (zinc finger protein 385D)	0.329	0.239	0.331	0.0478	0.34
COPS7B (COP9 signalosome subunit 7B)	0.14	0.101	0.435	0.0374	0.188
RASAL2 (RAS protein activator like 2)	0.264	0.346	0.158	0.0474	0.213
FUT4 (fucosyltransferase 4)	0.176	0.315	0.354	0.0356	0.173
KLHL3 (kelch like family member 3)	0.193	0.755	0.691	0.0171	0.221
HMGCS1 (3-hydroxy-3-methylglutaryl-CoA synthase 1)	0.0819	0.423	0.244	0.0215	0.241
SIRPA (signal regulatory protein alpha)	0.118	0.277	0.44	0.00478	0.208
TERF2 (telomeric repeat binding factor 2)	0.106	0.101	0.342	0.0173	0.258
MBL2 (mannose binding lectin 2)	0.121	0.0957	0.296	0.00951	0.197
WWOX (WW domain containing oxidoreductase)	0.119	0.0909	0.196	0.0205	0.0759
HPRT1 (hypoxanthine phosphoribosyltransferase 1)	0.127	0.183	0.378	0.0172	0.145
CSNK1G3 (casein kinase 1 gamma 3)	0.0628	0.0413	0.203	0.0102	0.135
PAQR6 (progestin and adipoQ receptor family member 6)	0.137	0.38	0.248	0.0608	0.279
TAS2R1 (taste 2 receptor member 1)	0.112	0.364	0.356	0.026	0.163
SELENOT (selenoprotein T)	0.138	1.55	0.429	0.0412	0.233
SUB1 (SUB1 regulator of transcription)	0.151	0.121	0.401	0.0285	0.115
YKT6 (YKT6 vesicular SNARE protein)	0.0928	0.438	0.296	0.0186	0.24
ERBB4 (erb-b2 receptor tyrosine kinase 4)	0.0667	0.122	0.406	0.01	0.354
PLCB3 (phospholipase C beta 3)	0.058	0.0803	0.272	0.00892	0.0964
MYLK2 (myosin light chain kinase 2)	0.0783	0.146	0.32	0.00987	0.258
RAC2 (Rac family small GTPase 2)	0.0846	0.934	0.333	0.0281	0.208
BNIP2 (BCL2 interacting protein 2)	0.152	0.265	0.258	0.0218	0.192
INPP5K (inositol polyphosphate-5-phosphatase K)	0.207	0.145	0.251	0.0255	0.126
TBCK (TBC1 domain containing kinase)	0.07	0.0398	0.195	0.00285	0.139
APOE (apolipoprotein E)	0.164	0.182	0.288	0.0286	0.0909

8 entries from above, limited to “ACSL5 mRNA, set 1”:
HPRT1 (hypoxanthine phosphoribosyltransferase 1) = 0.145
CSNK1G3 (casein kinase 1 gamma 3) = 0.135
PAQR6 (progestin and adipoQ receptor family member 6) = 0.279
TAS2R1 (taste 2 receptor member 1) = 0.163
SELENOT (selenoprotein T) = 0.233
SUB1 (SUB1 regulator of transcription) = 0.115
YKT6 (YKT6 vesicular SNARE protein) = 0.24
ERBB4 (erb-b2 receptor tyrosine kinase 4) = 0.354

Continued:
Target gene	BNIP3L mRNA, set 1	NDRG1 mRNA, set 1	BNIP3 mRNA, set 1	ALDOC mRNA, set 1	ACSL5 mRNA, set 1
CCNP (cyclin P)	0.0833	0.198	0.351	0.0363	0.164
DEFB103B (defensin beta 103B)	0.0855	0.117	0.287	0.0203	0.234
LINC00208 (long independently transcribed non-coding RNA 208)	0.188	0.137	0.365	0.0671	0.192
GRM2 (glutamate metabotropic receptor 2)	0.243	0.253	0.294	0.0518	0.36
JRK (Jrk helix-turn-helix protein)	0.0579	0.172	0.337	0.0167	0.138
LRRC4C (leucine rich repeat containing 4C)	0.119	0.27	0.325	0.0319	0.178
LENEP (lens epithelial protein)	0.179	0.824	0.333	0.0501	0.29
GADD45GIP1 (GADD45G interacting protein 1)	0.0766	0.0843	0.281	0.028	0.109
EEPD1	0.138	0.299	0.315	0.0525	0.287
IL18BP (interleukin 18 binding protein)	0.101	0.0847	0.228	0.0355	0.0467
CCDC91 (coiled-coil domain containing 91)	0.0467	0.0975	0.285	0.0221	0.085
PDHB (pyruvate dehydrogenase E1 subunit beta)	0.0815	0.155	0.262	0.0244	0.129
PCDHGA10 (protocadherin gamma subfamily A, 10)	0.111	0.229	0.228	0.0762	0.31
SPSB2 (splA/ryanodine receptor domain and SOCS box containing 2)	0.185	0.377	0.284	0.0328	0.178
LILRA6 (leukocyte immunoglobulin like receptor A6)	0.12	0.303	0.246	0.0182	0.202
ENO2 (enolase 2)	0.0895	0.207	0.357	0.0108	0.143
STK32C (serine/threonine kinase 32C)	0.062	0.194	0.237	0.00504	0.3
MIS12 (MIS12 kinetochore complex component)	0.196	0.152	0.323	0.0503	0.244
RNF135 (ring finger protein 135)	0.256	0.373	0.305	0.245	0.4
DCLRE1A (DNA cross-link repair 1A)	0.0631	0.127	0.324	0.011	0.204
DSP (desmoplakin)	0.0854	0.602	0.221	0.0145	0.367
NRDC (nardilysin convertase)	0.139	0.274	0.324	0.0409	0.143
SPRR3 (small proline rich protein 3)	0.138	0.853	0.404	0.0282	0.116
UPK3B (uroplakin 3B)	0.0329	0.274	0.242	0.014	0.19
